According to article doi:10.1101/687780:
These are yes or no findings as the source states them, for the method shown. In cells and extracts the contact can be indirect. Some binding calls cover weakened binding; strength is not graded here.

Target: adenosine A2A receptor (human (endogenous in postmortem ventral striatum)) (UniProt P29274)
Assay: proximity ligation

With “dopamine D2 receptor (from UniProt P14416 1-443)” the binding was “binds”.
